According to patent EP0364819A2, “LHRH analogs” (The Administrators of The Tulane Educational Fund, priority 1988, dated 1990):
At least one peptide structure holds a part that was inferred or is arguable (an end, a ring closure or a residue).

What was measured:
[1] = tested on: membrane receptors of human prostate cancer; experiment: Receptor binding to human prostate cancer membranes with 125I-labeled [D-Trp6]LHRH; conditions: first receptor class (high affinity binding sites)
Description: (c)Affinity for peptides to human prostate and breast cancer cell membranes.
(§1) This is determined by using labelled LHRH and [D-Trp⁶]LHRH. The assay is carried out similarly to that described by T. Kadar et al., Proc. Natl. Acad. Sci. USA, 85, 890-894 (1988).

[2] = tested on: membrane receptors of Dunning tumor; experiment: Receptor binding to Dunning tumor membranes with 125I-labeled [D-Trp6]LHRH; conditions: second receptor class (low affinity binding sites); rat Dunning tumor
Description: as §1

[3] = tested on: dispersed rat pituitary cell superfusion system; experiment: LH release in dispersed rat pituitary cell superfusion system (LHRH agonistic activity); type: cell-based; conditions: peptide infused for 3 minutes at various concentration; LH released compared to that released by 3 nM LHRH

Compound: CC(C)C[C@H](NC(=O)[C@@H](Cc1ccc(N(CCCl)CCCl)cc1)NC(=O)[C@H](Cc1ccc(O)cc1)NC(=O)[C@H](CO)NC(=O)[C@H](Cc1c[nH]c2ccccc12)NC(=O)[C@H](Cc1c[nH]cn1)NC(=O)[C@@H]1CCC(=O)N1)C(=O)N[C@@H](CCCNC(=N)N)C(=O)N1CCC[C@H]1C(=O)NCC(N)=O [Example I, pGlu-His-Trp-Ser-Tyr-D-Mel-Leu-Arg-Pro-Gly-NH₂]
- Human prostate cancer* Ka1 [1]: 9.66 nM⁻¹
- Dunning tumor* Ka2 [2]: 5.73 nM⁻¹
- Hormonal activity* LH responses rel. to LHRH (= 1) [3]: 133
